According to patent US20180251765A1, “HIGH-THROUGHPUT SPLIT APTAMER SCREENING ASSAY” (BELLBROOK LABS, priority 2015, published 2018):
Some of these results come from one statement about several compounds together.

Tested on: split SAH aptamer P152/P218, Tb construct
Assay: split aptamer SAH TR-FRET assay, Tb construct
Type: binding, D. aromatica
Protocol: The split aptamer SAH detection assay was next formatted for TR-FRET readout. Luminescent lanthanides were attached to P152 of the SAH aptamer via streptavidin-biotin, and organic acceptor fluors were attached to P218 during synthesis. Both Tb and Eu lanthanide chelates (Life Technologies) were tested, as were four different organic fluors with excitation spectra overlapping the lanthanide emission (Alexa 633, Alexa 647, Cy5, and Dylight 650.)
Importantly, the signal was stable for at least 15 h.

Substance	TR-FRET signal stable for
P152: 52 base 5′ element of split Dar-1 riboswitch (CCGAGGAGCGCUGCGACCCUUUAAUUCGGGGGCCAGGCUCGGCAAUGAUGCC; chemistry not given here)	at least 15 h
P218: 18 base 3′ element of split Dar-1 riboswitch, fluor-labeled (AUGAUCAACGGCGCUCGC; fluorophore label, position not given here)	at least 15 h
